From the supplement of paper PMC12889115
Some of the results follow. Values are raw readings; no control value is given beside them.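 In the initial screen, polymyxin B was used at a concentration that permeabilizes Salmonella's outer membrane but not its inner membrane. Maximum growth was set by DMSO wells with or without polymyxin B. Since plates varied, data were ranked per plate, and compounds giving the lowest OD600 advanced as hits.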

System: Salmonella enterica serovar Typhimurium SL1344
Experiment: bacterial growth OD600 after 18 h with compound and polymyxin B; higher = more bacterial growth (less inhibition)
Conditions: 50 µM, Mueller-Hinton broth

SMILES	bacterial growth OD600 (polymyxin B 1 µg/mL)	bacterial growth OD600 (polymyxin B 0.75 µg/mL)
CCOC(=O)C1(Cc2cccc(OC)c2)CCN(Cc2cc(OC)ccc2OC)CC1	0.751	
COCCN1CCC(CN(CC2CCCO2)C(=O)c2cc(-c3ccc(C)o3)n[nH]2)CC1 (stereo not drawn)	0.722	
Cc1ncc2c(c1CNC(=O)C1CCCO1)CCN(C(=O)c1ccc(F)cc1Cl)C2 (stereo not drawn)		0.771
CCOC(=O)C1(Cc2ccc(F)cc2F)CCCN(C(=O)c2cc(C)n(C)n2)C1 (stereo not drawn)	1.31	
Cc1ccn2c(CNCCN3CCCCC3)c(C(=O)N3CCCCCC3)nc2c1		0.811
COc1ccc(CCNC(=O)C2CCN(c3nc(C)c4ccc(S(C)(=O)=O)cc4n3)CC2)cc1		0.847
Cc1nc(N2CCC(C(=O)NCC3CC4C=CC3C43CC3)CC2)nc2ccccc12 (stereo not drawn)		0.87
Cc1cnc(CNC(=O)CC(c2ccccc2)c2ccccc2Cl)cn1 (stereo not drawn)	0.819	
